Measured values published in paper PMC7862700.
The entries are a selection whose mix differs from that of the whole data set. At the low end of the ranking, values are background and their order means little.

Amino acid sequences for entries named in this document (tags omitted). A change or cut given only in a name is not applied to a line headed by its entry.
UniProt Q01892: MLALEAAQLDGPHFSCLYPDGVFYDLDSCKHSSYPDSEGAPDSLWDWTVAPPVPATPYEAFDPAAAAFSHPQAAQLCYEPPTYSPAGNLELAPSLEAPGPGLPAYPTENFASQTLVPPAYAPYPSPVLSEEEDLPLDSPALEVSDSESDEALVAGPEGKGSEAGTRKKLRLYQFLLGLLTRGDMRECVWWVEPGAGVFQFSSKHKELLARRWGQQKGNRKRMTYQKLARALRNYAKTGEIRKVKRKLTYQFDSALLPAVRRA
UniProt P41161: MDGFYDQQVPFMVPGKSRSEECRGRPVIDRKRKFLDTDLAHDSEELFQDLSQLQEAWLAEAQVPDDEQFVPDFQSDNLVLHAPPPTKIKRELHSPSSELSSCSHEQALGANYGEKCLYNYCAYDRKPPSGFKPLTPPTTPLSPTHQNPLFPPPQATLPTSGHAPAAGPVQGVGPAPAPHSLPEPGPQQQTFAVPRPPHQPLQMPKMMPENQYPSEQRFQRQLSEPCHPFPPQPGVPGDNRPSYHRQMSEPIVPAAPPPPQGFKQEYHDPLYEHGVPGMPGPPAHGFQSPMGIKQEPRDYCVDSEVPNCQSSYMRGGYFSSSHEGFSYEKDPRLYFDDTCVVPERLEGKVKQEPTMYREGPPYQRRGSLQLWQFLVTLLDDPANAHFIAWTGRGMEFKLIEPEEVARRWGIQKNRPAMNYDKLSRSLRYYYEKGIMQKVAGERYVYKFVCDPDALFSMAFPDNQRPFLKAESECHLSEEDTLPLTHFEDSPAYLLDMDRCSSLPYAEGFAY
UniProt Q99607: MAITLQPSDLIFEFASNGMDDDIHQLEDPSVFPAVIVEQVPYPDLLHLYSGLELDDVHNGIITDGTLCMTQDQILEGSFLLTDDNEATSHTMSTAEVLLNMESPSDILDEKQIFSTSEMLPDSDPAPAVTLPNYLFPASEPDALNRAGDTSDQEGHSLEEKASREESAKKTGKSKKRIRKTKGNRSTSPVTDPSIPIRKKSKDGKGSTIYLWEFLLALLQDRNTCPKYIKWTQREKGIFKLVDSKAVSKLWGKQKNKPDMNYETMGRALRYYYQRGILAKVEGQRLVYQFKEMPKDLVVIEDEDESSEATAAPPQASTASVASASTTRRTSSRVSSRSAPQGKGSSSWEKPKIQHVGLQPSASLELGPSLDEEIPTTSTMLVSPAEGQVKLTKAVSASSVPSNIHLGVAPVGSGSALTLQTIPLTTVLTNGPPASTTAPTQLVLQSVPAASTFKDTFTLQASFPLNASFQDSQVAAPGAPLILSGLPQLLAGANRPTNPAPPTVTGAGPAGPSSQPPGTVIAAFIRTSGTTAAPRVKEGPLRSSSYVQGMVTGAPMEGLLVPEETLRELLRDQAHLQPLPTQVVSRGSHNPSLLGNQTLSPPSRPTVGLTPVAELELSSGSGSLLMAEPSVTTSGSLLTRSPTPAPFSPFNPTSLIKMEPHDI

Tests used:
Assay in all cases: DAPPL (digital affinity profiling via proximity ligation, sequencing)
Details in all cases: 10 mM Tris-HCl pH 7.5, 50 mM NaCl, 1 mM DTT, 4% glycerol, room temperature, 30 min; GST-TFs on glutathione beads, 16-mer random dsDNA library, 0.1% …; high values mean tight binding; double strand, one strand shown; scale: fold enrichment (6-mer frequency, TF over GST control)
[1] = molecular target: T1, FLI1 (UniProt Q01543)
T1 sequence: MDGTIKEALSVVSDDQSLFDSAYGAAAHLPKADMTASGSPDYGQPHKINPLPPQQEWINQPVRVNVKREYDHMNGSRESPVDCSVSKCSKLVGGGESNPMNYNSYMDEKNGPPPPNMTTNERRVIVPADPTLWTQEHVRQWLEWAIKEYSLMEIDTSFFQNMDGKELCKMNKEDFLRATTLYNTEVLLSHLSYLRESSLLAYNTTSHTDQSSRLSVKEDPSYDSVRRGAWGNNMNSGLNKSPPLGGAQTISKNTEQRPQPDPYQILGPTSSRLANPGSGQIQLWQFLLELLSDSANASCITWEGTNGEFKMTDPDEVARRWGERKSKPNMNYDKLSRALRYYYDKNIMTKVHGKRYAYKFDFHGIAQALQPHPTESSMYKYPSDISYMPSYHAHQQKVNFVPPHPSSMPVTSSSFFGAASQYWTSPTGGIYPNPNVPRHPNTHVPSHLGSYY

[2] = molecular target: T2, EHF (UniProt Q9NZC4)
T2 sequence: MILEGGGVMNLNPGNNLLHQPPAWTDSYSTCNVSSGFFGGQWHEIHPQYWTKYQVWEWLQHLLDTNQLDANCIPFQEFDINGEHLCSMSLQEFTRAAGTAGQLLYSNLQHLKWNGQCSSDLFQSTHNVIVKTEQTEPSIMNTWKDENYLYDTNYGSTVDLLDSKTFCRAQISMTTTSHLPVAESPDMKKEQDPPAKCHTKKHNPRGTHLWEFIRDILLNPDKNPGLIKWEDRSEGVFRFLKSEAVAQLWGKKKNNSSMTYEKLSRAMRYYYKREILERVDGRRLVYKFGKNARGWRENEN

[3] = molecular target: SPIB (UniProt Q01892)
[4] = molecular target: ETV5 (UniProt P41161)
[5] = molecular target: ELF4 (UniProt Q99607)
[6] = molecular target: T3, ETV2 (UniProt O00321)
T3 sequence: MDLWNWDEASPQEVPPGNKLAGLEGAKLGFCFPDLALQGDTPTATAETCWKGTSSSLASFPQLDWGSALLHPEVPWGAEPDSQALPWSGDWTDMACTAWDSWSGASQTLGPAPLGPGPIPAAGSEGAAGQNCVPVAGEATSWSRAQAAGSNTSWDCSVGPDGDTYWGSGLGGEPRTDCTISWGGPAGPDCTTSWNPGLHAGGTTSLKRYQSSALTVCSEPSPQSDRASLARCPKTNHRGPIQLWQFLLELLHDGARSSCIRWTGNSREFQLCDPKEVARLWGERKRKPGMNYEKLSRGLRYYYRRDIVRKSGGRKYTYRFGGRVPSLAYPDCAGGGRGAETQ

[7] = molecular target: T4, ETV3L (UniProt Q6ZN32)
T4 sequence: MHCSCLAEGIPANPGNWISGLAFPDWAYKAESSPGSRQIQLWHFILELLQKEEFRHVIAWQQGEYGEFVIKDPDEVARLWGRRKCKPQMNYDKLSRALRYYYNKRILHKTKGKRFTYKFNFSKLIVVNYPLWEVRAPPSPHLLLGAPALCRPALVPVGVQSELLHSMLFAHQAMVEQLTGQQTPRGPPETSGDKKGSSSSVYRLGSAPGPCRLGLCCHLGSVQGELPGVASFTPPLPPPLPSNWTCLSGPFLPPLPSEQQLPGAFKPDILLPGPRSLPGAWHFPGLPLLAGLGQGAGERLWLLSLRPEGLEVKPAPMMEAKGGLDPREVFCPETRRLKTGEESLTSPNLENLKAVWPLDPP

Sequence	binding signal [1]	binding signal [2]	binding signal [3]	binding signal [4]	binding signal [5]	binding signal [6]	binding signal [7]
GGTTAA	0.964	0.888	0.915	0.891	0.931	0.851	0.914
TCCGAG	0.853	0.862	0.982	0.865	0.9	0.917	0.871
AGTCTT	0.959	0.945	0.795	0.926	0.87	0.799	0.996
GCAGAA	0.94	0.952	0.934	0.909	0.912	0.962	0.844
